Reference: paper PMC13459536
No constants are given. Whether binding was seen depends on the method and setting. In cells and extracts the contact can be indirect. Some binding calls cover weakened binding; strength is not graded here. Tags and fused reporters may be left off the sequences shown.

Target: T1, Atp6-HA-6xHis (ATP synthase subunit a) (S. cerevisiae) (UniProt P00854)
T1 sequence: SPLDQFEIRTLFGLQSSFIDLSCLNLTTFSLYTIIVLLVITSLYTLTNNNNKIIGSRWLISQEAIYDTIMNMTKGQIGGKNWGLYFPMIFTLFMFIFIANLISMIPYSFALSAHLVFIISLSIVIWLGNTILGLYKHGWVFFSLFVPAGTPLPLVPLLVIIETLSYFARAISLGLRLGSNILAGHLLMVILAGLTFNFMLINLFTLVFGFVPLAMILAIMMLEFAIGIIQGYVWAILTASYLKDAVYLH
Test: pull-down; ATP synthase complexes purified through Atp6-HA-6xHis on Ni-NTA agarose beads from 5 mg of mitochondria of the wild-type strain; 2 ug of eluate on 15% SDS-PAGE, Western blot with antibodies against the subunits

B1: Atp3 (ATP synthase subunit γ) (protein, UniProt P38077 34-311)
chain: ATLKEVEMRLKSIKNIEKITKTMKIVASTRLSKAEKAKISAKKMDEAEQLFYKNAETKNLDVEATETGAPKELIVAITSDKGLCGSIHSQLAKAVRRHLNDQPNADIVTIGDKIKMQLLRTHPNNIKLSINGIGKDAPTFQESALIADKLLSVMKAGTYPKISIFYNDPVSSLSFEPSEKPIFNAKTIEQSPSFGKFEIDTDANVPRDLFEYTLANQMLTAMAQGYAAEISARRNAMDNASKNAGDMINRYSILYNRTRQAVITNELVDIITGASSLG
**Q.** With B1 as the binder, how does the binding read?
**A.** binds
